Patent publication US20130123347, “FRACTALKINE BINDING POLYNUCLEOTIDES AND METHODS OF USE” (published 2013)
At least one result comes from cells or an extract, where the contact may be indirect. A weaker result is weaker than the reference pair of the same experiment. Where a protein sequence is shown, tags need not be part of it.

Target: T1, fractalkine expressed on MCA-38.FKN cells (UniProt P78423)
T1 sequence (looked up, limits assumed): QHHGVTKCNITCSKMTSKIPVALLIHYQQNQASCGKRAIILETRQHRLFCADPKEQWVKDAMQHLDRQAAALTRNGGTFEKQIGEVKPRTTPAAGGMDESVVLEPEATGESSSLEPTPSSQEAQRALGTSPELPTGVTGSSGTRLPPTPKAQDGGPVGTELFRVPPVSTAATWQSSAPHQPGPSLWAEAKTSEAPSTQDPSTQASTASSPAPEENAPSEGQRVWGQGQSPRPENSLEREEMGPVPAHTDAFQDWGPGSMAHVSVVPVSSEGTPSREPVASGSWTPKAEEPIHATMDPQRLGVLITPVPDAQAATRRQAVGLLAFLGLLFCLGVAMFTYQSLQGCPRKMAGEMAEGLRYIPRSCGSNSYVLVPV
Test: flow cytometry
Details: protein on the cell surface, protein details: transfected murine colonic epithelial MCA-38 cells, single-stranded DNA, variant of FKN-S2

Does “GGGGTGGGTGGGGGGCACGTGTGGGGGCGGCCAGGGTGCT [3' PEG8 FKN-S2 Amphiphile]” bind (3' PEG8 spacer + C16 dialkyl tail, liposomes on MCA-38.FKN cells, 37 C, less than 3' 10T)?
Result: binds more weakly

Does “GGGGTGGGTGGGGGGCACGTGTGGGGGCGGCCAGGGTGCT [3' C12 FKN-S2 Amphiphile]” bind (3' C12 spacer + C16 dialkyl tail, liposomes on MCA-38.FKN cells, 37 C, less than 3' 10T)?
Result: binds more weakly

Does “GGGGTGGGTGGGGGGCACGTGTGGGGGCGGCCAGGGTGCTTTTTTTTTTT [3' 10T FKN-S2 Amphiphile]” bind (3' C16 dialkyl tail, calcein liposomes, MCA-38.FKN cells, DPBS with Ca/Mg, 37 C 1 h, best of four spacers, confocal shows binding and internalization)?
Result: binds

Does “GGGGTGGGTGGGGGGCACGTGTGGGGGCGGCCAGGGTGCT [3' No Spacer FKN-S2 Amphiphile]” bind (3' C6 amino-linked C16 dialkyl tail, liposomes on MCA-38.FKN cells, 37 C, less than 3' 10T)?
Result: binds more weakly
